AC50 data for 55 compounds are collected here from PubChem BioAssay AID1487 (National Center for Advancing Translational Sciences (NCATS), 2009).

This experiment in a line: qHTS Assay for Modulators of Lamin A Splicing. Particulars: HeLa LMNA splicing GFP/RFP minigene ratio, 48 h. Put shortly: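 S3 HeLa cells stably expressing lamin A-EGFP splicing minigene plus DsRed2, 600 cells/well, 48 h compound exposure at 37C. Laser-scanning cytometry; analysed as GFP (500-530 nm)/RFP (575-640 nm) total intensity ratio; 0.5% DMSO vehicle.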
A general note: qHTS replaces the single test concentration by a dilution series.

The mark [1] stands for this setting: measured here: GFP splicing reporter channel.
Setting [2] is: measured here: RFP viability control channel.

Molecules are shown by their SMILES. This is one part of the list. Further columns of the screen follow, without active or inactive calls. Most of these compounds were active or inconclusive in the main read-out, so they are no random draw. Words in brackets tell the shape of the fitted curve; partial curves, single points and poor fits give uncertain potencies.

As to `O=C(Nc1cccc(-c2nc3ccccc3[nH]2)c1)c1cccc(NC(=O)c2ccco2)c1`, the concentration at half-maximal activity (AC50) reads like this: under setting [1], 35.5 µM [falling, single point]; under setting [2], 35.5 µM [falling, single point]. For `Cc1ccc(N(CC(=O)NCc2ccc(OC(C)C)cc2)S(=O)(=O)N(C)C)cc1`, under setting [2], the AC50 is 0.00398 µM [rising, full curve, poor fit]. With `CC(=O)Nc1ccc(NC(=O)Nc2ccccc2C)cc1`, the concentration at half-maximal activity (AC50) under setting [1] was 0.282 µM [rising, full curve, poor fit].

As for `COc1cccc(N=Nc2c(N)[nH]n3c(=O)c4c(nc23)CCCC4)c1`, the AC50 under setting [1] was 35.5 µM [falling, single point].

With `O=C(c1ccco1)N1CCN(C(=S)Nc2cccc([N+](=O)[O-])c2)CC1`, the half-maximal activity concentration (AC50) under setting [1] was 6.31 µM [falling, full curve, poor fit]. Take `COC(=O)c1ccccc1O`: the AC50 by setting is: under setting [1], 0.891 µM [falling, single point]; under setting [2], 0.794 µM [falling, single point].

Regarding `Cc1ccc(NC(=O)CSC(N)=O)cc1Cl`, the AC50 under setting [1] was 35.5 µM [rising, single point].

`O=C(NCCc1ccc(Cl)cc1)c1ccc2c(c1)N(Cc1ccccc1)C(=O)CS2`: the AC50 under setting [1] is 0.0447 µM [falling, full curve, poor fit] and the AC50 under setting [2] is 0.02 µM [falling, full curve, poor fit]. Turning to `O=C(ONC1=NCCCCC1)c1c(F)cccc1F`, the AC50 under setting [2] is 10 µM [rising, single point]. On to `O=c1ccc(C(F)(F)F)cn1Cc1cc(=O)n2ccsc2n1`, for which the concentration at half-maximal activity (AC50) was 7.94 µM [rising, partial curve] under setting [1] and 2.82 µM [rising, full curve] under setting [2]. `CC1(c2cc([N+](=O)[O-])cc([N+](=O)[O-])c2)CC(C)(C)N(C(=O)c2ccccc2)c2ccccc21` (centres undefined): the half-maximal activity concentration (AC50) under setting [1] was 11.2 µM [rising, partial curve] and the AC50 under setting [2] is 8.91 µM [rising, partial curve].

Take `CN(CCOc1ccccc1)S(=O)(=O)c1ccc2oc3ccccc3c2c1`: under setting [2], the half-maximal activity concentration (AC50) is 11.2 µM [rising, single point]. As to `CC1=CC(C)(C)N2C(=O)C3(SCC(=O)N3c3ccc(F)cc3)c3cc(C)cc1c32` (centres undefined), the AC50 was 31.6 µM [rising, single point] under setting [1] and 35.5 µM [rising, single point] under setting [2]. As for `CN1CCN(C(=S)Nc2ccc(Cl)cc2Cl)CC1`, the concentration at half-maximal activity (AC50) is 35.5 µM [rising, single point] under setting [1] and 31.6 µM [rising, single point] under setting [2].

Take `Cc1nc2cc(Cl)ccc2n1-c1ccccc1`: under setting [1], the AC50 is 15.8 µM [rising, partial curve].

Consider `CC(=O)c1cccc(NC(=O)c2ccc(N(Cc3ccccc3C)S(C)(=O)=O)cc2)c1`, for which the concentration at half-maximal activity (AC50) under setting [2] is 15.8 µM [rising, single point].

As to `Cc1ccc2oc(=O)n(CCCOc3ccccc3C)c2c1`, the AC50 under setting [2] is 0.631 µM [falling, partial curve, poor fit]. In the case of `COc1ccc(N(CC(=O)Nc2ccc(OC)c(Cl)c2)S(=O)(=O)c2c(C)noc2C)cc1`, the AC50 is, setting by setting: under setting [1], 3.16 µM [rising, full curve]; under setting [2], 3.98 µM [rising, full curve, poor fit].

For the compound `Cc1sc2ncnc(N3CCC(C)CC3)c2c1C`, the half-maximal activity concentration (AC50) under setting [2] is 17.8 µM [rising, single point].

Consider `COc1ccccc1/C=C/C=N/n1c(C2CCCCC2)n[nH]c1=S`, for which the AC50 under setting [2] is 14.1 µM [rising, single point]. For the compound `COc1ccc(CC2(CO)CCN(Cc3ccc(OC(F)(F)F)cc3)CC2)cc1`, the concentration at half-maximal activity (AC50) under setting [1] is 1.78 µM [falling, full curve] and the half-maximal activity concentration (AC50) under setting [2] is 3.98 µM [falling, full curve, poor fit].

`Oc1c(C(Nc2ccccn2)c2ccccn2)ccc2cccnc12` (centres undefined): the AC50 was 12.6 µM [rising, single point] under setting [1] and 11.2 µM [rising, partial curve] under setting [2]. For the compound `C/C(=C1/C(=O)N(c2ccc([N+](=O)[O-])cc2)N=C1c1ccccc1)N(C)C`, the AC50 is 5.01 µM [rising, partial curve] under setting [1] and 7.94 µM [rising, partial curve] under setting [2]. As for `COC(=O)c1ccc(C(=O)OC)c(NC(=S)N2CCC(C)CC2)c1`, the half-maximal activity concentration (AC50) under setting [2] is 0.794 µM [falling, single point]. The same measure, in the same setting: the same measure for `CCCNC(=S)N(Cc1ccccc1)Cc1nc2ccccc2c(=O)[nH]1`: 12.6 µM [rising, partial curve]. Consider `O=C1N/C(=N\N=C\c2ccccn2)SC1Cc1cccc(SC(F)F)c1` (centres undefined), for which the concentration at half-maximal activity (AC50) is 4.47 µM [falling, full curve] under setting [1] and 7.94 µM [falling, partial curve] under setting [2]. With `Cc1cccc2nc(-c3cccc(NC(=O)c4ccc(Cl)cc4)c3)cn12`, the AC50 under setting [2] was 17.8 µM [rising, single point]. For the compound `O=C(OCc1cccs1)c1ccccc1NS(=O)(=O)c1ccc2c(c1)OCCO2`, the half-maximal activity concentration (AC50) under setting [2] is 35.5 µM [rising, single point]. As for `COc1ccc(C(=O)Nc2ccccc2-c2nnn(CC(=O)N3CCOCC3)n2)cc1`, under setting [1], the half-maximal activity concentration (AC50) is 5.62 µM [rising, partial curve]. Still for that read-out and setting: as for `O=C(Oc1ccc(-c2cnc3ccccc3n2)cc1)c1cc([N+](=O)[O-])ccc1Cl`, the figure is 35.5 µM [rising, single point]; as for `Fc1cccc(Nc2ncnc3[nH]ncc23)c1`, 35.5 µM [falling, partial curve, poor fit]. On to `CCCCCCCCCCOC(=O)C[N+](C)(C)C/C=C(/C)Cl`, for which the half-maximal activity concentration (AC50) is, setting by setting: under setting [1], 20 µM [rising, partial curve, poor fit]; under setting [2], 35.5 µM [rising, single point]. Turning to `CC(NC(=O)CN(c1cccc(C(F)(F)F)c1)S(=O)(=O)c1ccc(Cl)c([N+](=O)[O-])c1)c1ccccc1` (centres undefined), under setting [1], the AC50 is 25.1 µM [falling, partial curve, poor fit]. For `CCOC(=O)C1=C(N)Oc2cc(O)ccc2C1c1cccnc1` (centres undefined), the AC50 under setting [1] was 5.62 µM [rising, partial curve, poor fit] and the AC50 under setting [2] was 12.6 µM [rising, partial curve, poor fit]. As to `Cc1cccc(OCC(=O)NC(=S)Nc2ccccc2N2CCOCC2)c1`, the half-maximal activity concentration (AC50) under setting [1] is 3.98 µM [rising, partial curve, poor fit] and the AC50 under setting [2] is 17.8 µM [rising, single point]. Turning to `COc1ccc(CCNC(=O)c2cc(C(=O)c3cc(Cl)ccc3O)cn(CCc3ccc(OC)cc3)c2=O)cc1`, the concentration at half-maximal activity (AC50) under setting [2] is 0.631 µM [rising, partial curve, poor fit]. For the compound `Cc1cc(Cl)c(S(=O)(=O)N2CCN(c3ccc(F)cc3)CC2)cc1OCC(N)=O`, the half-maximal activity concentration (AC50) reads like this: under setting [1], 5.01 µM [rising, partial curve]; under setting [2], 3.16 µM [rising, full curve]. `Cc1cc(C)nc(SCc2nc3ncccn3c2Br)n1`: the half-maximal activity concentration (AC50) under setting [1] was 17.8 µM [rising, partial curve, poor fit]. Turning to `CC1CC(=S)Nc2ccccc2N1Cc1ccccc1` (centres undefined), the AC50 under setting [1] was 35.5 µM [rising, partial curve, poor fit] and the half-maximal activity concentration (AC50) under setting [2] is 35.5 µM [rising, single point]. On to `O=C(/C=C/c1ccccc1)N1CCC(Cc2ccccc2)CC1`, for which the half-maximal activity concentration (AC50) was 15.8 µM [rising, single point] under setting [1] and 20 µM [rising, single point] under setting [2]. On to `O=S(=O)(Nc1ccc(O)c(Sc2nc3ccccc3s2)c1)c1cccc2ccccc12`, for which the concentration at half-maximal activity (AC50) was 35.5 µM [falling, single point] under setting [1] and 35.5 µM [falling, single point] under setting [2]. For `CSc1ncnc2sc(C)c(C)c12`, the AC50 under setting [2] is 0.00794 µM [rising, full curve]. Regarding `COc1ccc(S(=O)(=O)Oc2ccc3ccccc3c2)cc1`, the concentration at half-maximal activity (AC50) by setting is: under setting [1], 12.6 µM [rising, single point]; under setting [2], 35.5 µM [rising, single point]. As to `CCOc1cccc(OCCCOc2cccc3cccnc23)c1`, the AC50 under setting [1] was 5.62 µM [rising, partial curve, poor fit] and the AC50 under setting [2] is 11.2 µM [rising, single point]. For `CCOC(=O)N1CCN(/C=C(\C#N)c2nc3ccccc3s2)CC1`, the AC50 by setting is: under setting [1], 35.5 µM [rising, single point]; under setting [2], 35.5 µM [rising, single point]. For the compound `COc1ccc(C=O)cc1COc1ccccc1F`, under setting [1], the concentration at half-maximal activity (AC50) is 0.0158 µM [rising, full curve, poor fit]. As to `Cc1ccc(CN2CC(C(=O)Nc3nnc(SCc4c(Cl)cccc4Cl)s3)CC2=O)cc1` (centres undefined), the AC50 reads like this: under setting [1], 35.5 µM [rising, single point]; under setting [2], 35.5 µM [rising, single point].

As for `Cc1ccc(-c2cc(C(=O)NCc3ccccn3)c3ccccc3n2)cc1C`, the half-maximal activity concentration (AC50) under setting [2] was 35.5 µM [rising, single point].

Take `O=C(CSc1nc2ccccc2nc1Cc1ccc(F)cc1)Nc1ccc2c(c1)OCO2`: the AC50 under setting [2] is 0.0316 µM [falling, full curve, poor fit]. The same measure, in the same setting: as for `COc1ccc(-n2c3c(c(=O)[nH]c2=O)C(NC(C)=O)(C(F)(F)F)C(=O)N3)cc1` (centres undefined), the figure is 0.562 µM [falling, full curve, poor fit]; as for `Clc1ccc(CSc2nnc([C@@H]3CCCN3)o2)cc1`, 0.00891 µM [rising, full curve, poor fit].

As to `Clc1ccccc1-c1cc(NCc2ccccc2)ncn1`, the AC50 under setting [1] was 11.2 µM [falling, partial curve, poor fit]. The same measure, in the same setting: the same measure for `O=C(O)CCC(=O)N1CCCC1C(=O)O` (centres undefined): 0.00316 µM [falling, full curve, poor fit]. For `S=C(NCc1cccnc1)Nc1cccc2ccccc12`, the AC50 under setting [2] was 35.5 µM [rising, single point]. Take `CC(=NCCc1c(C)[nH]c2ccc(C)cc12)C1=C(O)CC(c2ccccc2)CC1=O` (centres undefined): the AC50 is 0.891 µM [falling, partial curve, poor fit] under setting [1] and 5.62 µM [rising, single point] under setting [2].

What is called AC50 is the concentration at which the activity in the assay is half-maximal.
